The values that follow come from publication PMC5996148.

The chains behind the UniProt entries cited, without tags or fusion partners.
UniProt P60228, whole entry: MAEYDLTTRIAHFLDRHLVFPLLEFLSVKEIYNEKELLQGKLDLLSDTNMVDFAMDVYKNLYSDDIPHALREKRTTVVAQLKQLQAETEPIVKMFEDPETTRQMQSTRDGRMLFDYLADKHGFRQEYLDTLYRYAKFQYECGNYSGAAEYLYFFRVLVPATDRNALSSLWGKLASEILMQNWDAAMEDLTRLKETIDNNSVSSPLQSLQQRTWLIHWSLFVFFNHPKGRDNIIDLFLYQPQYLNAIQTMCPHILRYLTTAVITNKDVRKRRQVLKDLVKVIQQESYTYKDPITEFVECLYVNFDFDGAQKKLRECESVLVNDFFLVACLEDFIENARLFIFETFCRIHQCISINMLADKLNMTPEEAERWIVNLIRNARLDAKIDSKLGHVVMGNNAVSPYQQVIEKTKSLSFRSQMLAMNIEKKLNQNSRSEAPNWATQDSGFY

Holding throughout (assay): protein microarray (ProtoArray v5.0), streptavidin-Alexa Fluor 647
Common to all, as to conditions: 3'-biotin; 20 mM Tris (pH 7.5), 5 mM MgCl2, 100 mM KCl, 0.1% Tween-20, A/T-rich and random oligonucleotide blockers; temperature not stated; high values mean tight binding

For one assay, the target named is EIF3S6 (UniProt P60228).
Another assay concerns the target T1, EIF4EBP3 (UniProt O60516).
T1 sequence: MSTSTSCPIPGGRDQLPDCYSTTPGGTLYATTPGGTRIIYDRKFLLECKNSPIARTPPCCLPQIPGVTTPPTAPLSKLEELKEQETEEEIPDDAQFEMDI

Another assay has as its system EIF5A2 (human).
The subject of the next assay is ELA3A (human).
The test system of another assay is EMILIN1 (human).
The test system of another assay is ENO2 (human).
The test system of the next assay is ENTPD1 (human).
The subject of another assay is EP400NL (human).
The test system of the next assay is ERCC6L (human).
In another assay the test system is ETFB (human).
The next assay relates to ETHE1 (human).
A further assay concerns ETS1 (human).
The subject of assay [1] is Elongation factor 1-gamma (human).
The subject of assay [2] is Endothelial protein C receptor (human).
For a further assay, the system named is Erythropoietin (human).
The subject of assay [3] is Eukaryotic translation initiation factor 3 subunit E (human).
The subject of assay [4] is Exocyst complex component 3 (human).
A further assay relates to Ezrin (human).
A further assay deals with FABP3 (human).
The test system of a further assay is FABP7 (human).

Several values for one entry are separate records, joined by “and”; a condition that tells them apart may be missing. Identical values can stand only once. This is one part of the list. For some assays here: Construct or isoform of the protein are uncertain.

Take “GGTGACAGGGGTATGGGGAGGGG [G4-2 biotinylated (Ct1)]”: the binding signal with EIF3S6 was -0.393 z-score; in the assay with EIF4EBP3, -0.36 z-score; with EIF5A2 (human), -0.379 z-score; with ELA3A (human) it was -0.376 z-score and -0.39 z-score; in the assay on EMILIN1 (human), -0.395 z-score; in the assay on ENO2 (human) it was -0.38 z-score. Besides, the binding signal in the assay with ENTPD1 (human) was -0.368 z-score; in the assay on EP400NL (human) it was -0.391 z-score; in the assay on ERCC6L (human), -0.39 z-score; in the assay with ETFB (human), -0.379 z-score; in the assay on ETHE1 (human), -0.379 z-score; in the assay on ETS1 (human) it was -0.379 z-score. Further, the binding signal in assay [1] is -0.397 z-score; in assay [2] it was -0.363 z-score; in the assay with Erythropoietin (human) it was -0.391 z-score; in assay [3], -0.382 z-score; in assay [4] it was -0.399 z-score; in the assay with Ezrin (human) it was 3.51 z-score. Besides, the figures for the binding signal with FABP3 (human) and in the assay on FABP7 (human) were -0.399 z-score and -0.364 z-score, respectively.
